# Test results published in US20240238220A1, “METHODS FOR TREATING CANCERS” (priority 2023, published 2024).
# Some entries share one result that the patent states for a list of compounds.
# Test system: lung cancer cells, A549, H1299, H1975, CL1-5, and PC-9
# Assay: methylene blue dye assay, growth of lung cancer cells
# Format: cell-based, human
# Details: lung cancer cell lines
# Description: The effects of Compound A and Compound B on the growth of tumor cells were investigated in A549 (adenocarcinomic human alveolar epithelial cell), H1299 (human non-small cell lung carcinoma cell), H1975 (human non-small cell lung carcinoma cell), CL1-5 (human lung adenocarcinoma cell), and PC-9 (human lung adenocarcinoma cell) cell lines. A methylene blue dye assay (G. J. Finlay et al., Anal Biochem. 1984 June; 139(2):272-7) (11) was used to evaluate the inhibitory effect of Compound A and Compound B. Briefly, each of the cell lines with a logarithmic growth phase was cultured at a density of 2×10^4 to 4×10^4 cells per well in a 24-well plate, and treated with 1-5 μM of Compound A or Compound B for 1, 2, or 3 days. At the end of the incubation period, cells were fixed and stained with 0.5% methylene blue containing 50% ethanol for 30 minutes and then were washed and dried. The resulting colored residues were dissolved in 1% N-lauroyl-sarcosine, and optical density was read at 595 nm using a microplate reader. The IC50 value resulting from 50% inhibition of cell viability was calculated graphically as a comparison with vehicle control group. Each point represents the average of at least 3 independent experiments run in quadruple.
SMILES,cell viability reduced (after treatment for around 48 hours) [%],cell viability reduced (after treatment for around 72 hours) [%]
"COc1ccc(/C=C/C(=O)C(F)(CC2CCC2)C(=O)/C=C/c2ccc(OC)c(OC)c2)cc1OC [Compound A, 4-fluoro-4-cyclobutylmethyl-1,7-bis(3,4-dimethoxyphenyl)hepta-1,6-diene-3,5-dione]",> 60,–
"COc1ccc(/C=C/C(=O)C(CC2CCC2)C(=O)/C=C/c2ccc(OC)c(OC)c2)cc1OC [Compound B, 4-(cyclobutylmethyl)-1,7-bis(3,4-dimethoxyphenyl)hepta-1,6-diene-3,5-dione]",–,> 60
